PubChem BioAssay AID504774 | Drosophila RNAi Screening Center – 2011
Aim: 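Fly genes whose loss alters survival after alkylation damage to DNA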 (primary screen). System: Drosophila Kc167 cells. Reagents: long dsRNA against Drosophila genes, about 0.25 µg dsRNA per well. Time to read-out: about 6 days: 3 days knock-down, then 3 days with or without MMS. Treatment: methyl methanesulphonate 0.004% (w/v) for 3 days after knock-down. Measured: 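Viability in wells given MMS, read as ATP luminescence, normalised by quantiles plate by plate and averaged across replicates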. Direction: mean viability with MMS and viability with MMS: higher = more surviving cells after MMS.
The deposit covers about 23,000 reagents; below is an unselected part of those with a known target gene and a result. 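Values are quantile-normalised luminescence on an arbitrary scale; higher means more cells surviving MMS.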 The numbers tell different reagents against one gene apart. A plus sign joins genes that one reagent is predicted to hit.

The opening 9 records as a preview:
target gene	dsRNA no.	mean viability with MMS	viability with MMS, replicate 1	viability with MMS, replicate 2
mil	1	3.68e6	4.14e6	4.20e6
daw	1	3.53e6	3.97e6	4.03e6
CG31050	1	3.46e6	3.94e6	3.90e6
mts	1	2.88e6	3.10e6	3.25e6
ppk25	1	3.65e6	4.11e6	4.09e6
Iyd	1	3.71e6	4.19e6	4.16e6
Iyd	2	3.66e6	4.10e6	4.14e6
Pfdn5	1	3.59e6	4.04e6	4.09e6
Cyp318a1	1	3.57e6	4.02e6	4.06e6

The listing, from the first entry:
target gene	dsRNA no.	mean viability with MMS	viability with MMS, replicate 1	viability with MMS, replicate 2
mil	1	3.68e6	4.14e6	4.20e6
daw	1	3.53e6	3.97e6	4.03e6
CG31050	1	3.46e6	3.94e6	3.90e6
mts	1	2.88e6	3.10e6	3.25e6
ppk25	1	3.65e6	4.11e6	4.09e6
Iyd	1	3.71e6	4.19e6	4.16e6
Iyd	2	3.66e6	4.10e6	4.14e6
Pfdn5	1	3.59e6	4.04e6	4.09e6
Cyp318a1	1	3.57e6	4.02e6	4.06e6
Uqcc1 + CG9948	1	3.60e6	4.01e6	4.18e6
Def	1	3.65e6	4.14e6	4.07e6
CG32075	1	3.56e6	4.04e6	4.03e6
TwdlC	1	3.53e6	3.91e6	4.07e6
ncm	1	3.08e6	3.27e6	3.69e6
CG31391	1	3.61e6	4.08e6	4.05e6
CG10654	1	3.52e6	4.11e6	3.87e6
CG3437	1	3.46e6	3.93e6	3.91e6
CG42237	1	3.72e6	4.27e6	4.11e6
CG15408	1	3.53e6	4.06e6	3.94e6
CG14605	1	3.56e6	4.14e6	3.94e6
Swt1	1	3.71e6	4.32e6	4.14e6
CG10345	1	3.64e6	4.16e6	4.07e6
Tehao	1	3.51e6	4.05e6	3.92e6
Obp47a	1	3.42e6	3.81e6	3.96e6
PH4alphaNE2	1	3.45e6	3.89e6	3.88e6
CG13713	1	3.59e6	4.10e6	4.07e6
CG13894	1	3.13e6	3.60e6	3.62e6
CG13894	2	3.66e6	4.16e6	4.14e6
Gas41	1	3.40e6	3.59e6	4.00e6
CG6565	1	3.67e6	4.04e6	4.34e6
Tsp42Eq	1	3.79e6	4.15e6	4.26e6
Fbp1	1	3.35e6	3.76e6	3.77e6
CG9921	1	2.01e6	4.07e6	4.24e6
PVRAP	1	3.30e6	3.68e6	3.72e6
PVRAP	2	3.58e6	3.99e6	4.14e6
CR40450 + CG32767	1	3.42e6	3.62e6	3.98e6
CG7841	1	3.73e6	4.13e6	4.26e6
CG4496	1	3.47e6	3.89e6	3.98e6
heca	1	3.22e6	3.59e6	3.65e6
heca	2	3.54e6	3.94e6	4.12e6
CG14668	1	3.54e6	4.13e6	3.91e6
CG4744	1	3.50e6	3.97e6	3.93e6
sro	1	3.52e6	4.24e6	4.29e6
Ddc	1	3.58e6	4.04e6	4.09e6
CG8319	1	3.43e6	3.93e6	3.89e6
CNPYb	1	3.60e6	4.10e6	4.05e6
CG10587	1	3.57e6	4.00e6	4.09e6
CG15617	1	3.51e6	4.07e6	3.90e6
Psa	1	3.67e6	4.11e6	4.21e6
ND-20	1	3.33e6	4.04e6	3.98e6
Arc1	1	3.37e6	3.78e6	3.82e6
Tb	1	3.62e6	4.06e6	4.13e6
TpnC47D	1	3.41e6	3.92e6	3.71e6
CG10444	1	3.55e6	4.03e6	4.01e6
CG15071	1	3.53e6	4.04e6	3.97e6
spo	1	3.49e6	3.97e6	3.94e6
SmydA-8	1	3.55e6	3.95e6	4.12e6
SmydA-8	2	3.63e6	4.14e6	4.05e6
SmydA-8	3	3.41e6	3.93e6	3.89e6
CG30491	1	3.59e6	4.09e6	4.05e6
CG5446	1	3.66e6	4.02e6	4.24e6
mTerf5	1	3.69e6	4.11e6	4.20e6
mam	1	2.95e6	3.73e6	3.73e6
mam	2	2.54e6	3.12e6	2.87e6
mam	3	3.30e6	3.84e6	3.63e6
Lsp1beta	1	3.62e6	4.00e6	4.23e6
CR11235	1	3.52e6	3.99e6	4.02e6
CG6481	1	3.22e6	3.59e6	3.58e6
Dop2R	1	3.81e6	4.37e6	4.17e6
Dop2R	2	3.60e6	4.07e6	4.06e6
CG13794	1	3.74e6	4.55e6	3.95e6
KrT95D	1	3.39e6	3.84e6	3.84e6
CG9674	1	3.73e6	4.11e6	4.27e6
CG9674	2	3.57e6	4.06e6	4.03e6
CG31705	1	3.22e6	3.88e6	3.35e6
CG13004	1	3.66e6	4.15e6	4.12e6
CG15025	1	3.46e6	4.03e6	3.84e6
CG5255	1	3.56e6	4.16e6	3.93e6
Dhps	1	3.32e6	3.69e6	3.75e6
Cdc7	1	3.81e6	4.35e6	4.33e6
Cdc7	2	3.54e6	3.79e6	4.26e6
Cdc7	3	3.54e6	3.98e6	4.03e6
CG14538 (retired record)	1	3.34e6	3.99e6	3.53e6
AP-2alpha	1	3.62e6	3.99e6	4.26e6
CG15570	1	3.60e6	4.10e6	4.06e6
Rbsn-5	1	3.64e6	4.13e6	4.16e6
CG11841	1	3.56e6	4.06e6	4.02e6
